Results reported in patent publication US11104673B2 (priority 2014, dated 2021).

Assay: peptide synthesis
Conditions: conjugation step
In the case of “(2R)-2-((2S,3S)-1-(((1R,3R)-1-acetoxy-1-(4-((2R,4S)-4-carboxy-1-phenylpentan-2-ylcarbamoyl)thiazol-2-yl)-4-methylpentan-3-yl)(methyl)amino)-3-methyl-1-oxopentan-2-ylcarbamoyl)-1-(4-((S)-2-(1-(5-(2,5-dioxo-2,5-dihydro-1H-pyrrol-1-yl)pentylcarbamoyl)cyclobutanecarboxamido)-5-ureidopentanamido)benzyl)-1-methylpiperidinium”, the conjugation yield is reported as 31.64% yield. “(2S,4R)-4-[[2-[(1R,3R)-1-acetoxy-4-methyl-3-[methyl-[(2S,3S)-3-methyl-2-[[(2R)-1-methyl-1-[[4-[[(2R)-2-[(6-nitro-3-pyridyl)disulfanyl]propoxy]carbonylamino]phenyl]methyl]piperidin-1-ium-2-carbonyl]amino]pentanoyl]amino]pentyl]thiazole-4-carbonyl]amino]-2-methyl-5-phenyl-pentanoic Acid” showed a conjugation yield of 32% yield. With “[4-[[(2S)-2-[[1-[5-(2,5-dioxopyrrol-1-yl)pentylcarbamoyl]cyclobutanecarbonyl]amino]-5-ureido-pentanoyl]amino]phenyl]methyl-[(1S)-1-[[(1S)-1-[[(1S,2R)-2-methoxy-4-[(2S)-2-[(1R,2R)-1-methoxy-2-methyl-3-oxo-3-[[(1S)-2-phenyl-1-thiazol-2-yl-ethyl]amino]propyl]pyrrolidin-1-yl]-1-[(1S)-1-methylpropyl]-4-oxo-butyl]-methyl-carbamoyl]-2-methyl-propyl]carbamoyl]-2-methyl-propyl]-dimethyl-ammonium” the conjugation yield was 7.9% yield.
